This passage reports TEAD-luciferase reporter activity results from the supplement of paper PMC10735217.

Each structure is given as a SMILES string. Structures can show the parent of a compound that is named as a salt. The list shows a part of the results. This data set is noisy: repeats of one test often differ as much as different tests do.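 The human kidney-derived cells carry a stably integrated construct of eight TEAD-binding elements driving luciferase, read by luminescence in a drug-repurposing library screen. A compound counts as a hit when its signal is more than five robust Z scores above the plate mean.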

For the experiment, the system named is HEK293A TEAD-LUC reporter. Briefly: TEAD-luciferase reporter activity (YAP activation), robust Z score vs plate; higher = stronger YAP/TEAD activation. Particulars: 24 h. (In general: A reporter such as luciferase makes a cellular process visible.)

For `CCN(CC)CCN(CC)CC(=O)Nc1ccccc1Cl`, the TEAD-luciferase reporter activity was inactive: 0.0162 (compound concentration: 200 nM), inactive: -1.78 (compound concentration: 2 uM) and inactive: -0.115 (compound concentration: 10 uM).
On the same counts, the results for `CCCOC(=O)c1ccc(N)cc1` [propyl 4-aminobenzoate] are inactive: -1.04, inactive: 2.3 and inactive: 1.56.
As to `CC[C@H]1OC(=O)[C@H](C)[C@@H](O[C@H]2C[C@@](C)(OC)[C@@H](O)[C@H](C)O2)[C@H](C)[C@@H](O[C@@H]2O[C@H](C)C[C@H](N(C)C)[C@H]2O)[C@](C)(O)C[C@](C)(F)C(=O)[C@H](C)[C@@H](O)[C@]1(C)O` [Flurithromycin], the TEAD-luciferase reporter activity (compound concentration: 200 nM) is inactive: 0.183, the TEAD-luciferase reporter activity (compound concentration: 2 uM) is inactive: 3.94 and the TEAD-luciferase reporter activity (compound concentration: 10 uM) was inactive: -0.615.
For `CCCc1cc(Cl)c2oc(Cc3ccc(OC)cc3)c(C)c2c1O` the same measures were inactive: -0.778, inactive: -0.698 and inactive: -0.578.
On the same counts, the results for `CN[C@@H]1CC[C@H](c2ccc(Cl)c(Cl)c2)c2ccccc21` [sertraline hydrochloride] are inactive: -1.37, inactive: -1.03 and inactive: -1.32.
For `CS(=O)(=O)CC[C@H](N)C(=O)N[C@@H](CCC(=O)O)C(=O)N[C@@H](Cc1cnc[nH]1)C(=O)N[C@@H](Cc1ccccc1)C(=O)N[C@H](CCCCN)C(=O)N[C@@H](Cc1ccccc1)C(=O)O` the same measures were inactive: -1.31, inactive: -0.244 and inactive: -1.72.
In the case of `CN1CCN(CCCN2c3ccccc3Sc3ccc(C(F)(F)F)cc32)CC1`, the TEAD-luciferase reporter activity is inactive: 1.14 (compound concentration: 200 nM) and inactive: 3.32 (compound concentration: 10 uM).
With `CN1CCN(CCCN2c3ccccc3Sc3ccc(C(F)(F)F)cc32)CC1` [Trifluoperazine hydrochloride], the TEAD-luciferase reporter activity (compound concentration: 2 uM) was inactive: -0.305.
Take `O=C(Nc1ccc(O)cc1)c1ccccc1O` [N-Salicoylaminophenol]: the TEAD-luciferase reporter activity reads like this: (compound concentration: 200 nM) inactive: 1.11; (compound concentration: 2 uM) inactive: 1.51; (compound concentration: 10 uM) inactive: -0.162.
`Oc1ccc(C(O)CNCCCCCCNCC(O)c2ccc(O)c(O)c2)cc1O` (stereo not drawn) [hexoprenaline]: the TEAD-luciferase reporter activity was inactive: -0.224 (compound concentration: 200 nM), inactive: 2.42 (compound concentration: 2 uM) and inactive: -0.551 (compound concentration: 10 uM).
On the same counts, the results for `CC(C)(CCCCCC(O)CCCCCC(C)(C)C(=O)O)C(=O)O` [Bempedoic acid] are inactive: 0.822, inactive: 0.845 and inactive: -1.35.
For `CO[C@@H]1COCC[C@@H]1N[C@@H]1CC[C@@](C(=O)N2C[C@@H]3C[C@H]2CN3c2cc(C(F)(F)F)ncn2)(C(C)C)C1` the same measures were inactive: -0.464, inactive: -2.15 and inactive: -1.17.
On the same counts, the results for `CSc1ccc(C(=O)c2nc(O)[nH]c2C)cc1` [enoximone] are inactive: 0.715, inactive: -1.92 and inactive: 1.12.
For `C=CC(=O)N1CC/C(=C\c2ccc(F)c([N+](=O)[O-])c2)C(=O)/C(=C/c2ccc(F)c([N+](=O)[O-])c2)C1`, the TEAD-luciferase reporter activity reads like this: (compound concentration: 200 nM) inactive: 0.445; (compound concentration: 2 uM) inactive: -2.74; (compound concentration: 10 uM) inactive: -0.489.
For the molecule `CC(C)CCN1CCCCC12Cc1ccccc1CNC2=O` (stereo not drawn), the TEAD-luciferase reporter activity is inactive: 0.999 (compound concentration: 200 nM) and inactive: 0.916 (compound concentration: 10 uM).
In the case of `O=C1N=NC(=O)c2c1nc1cc(Cl)ccc1c2O`, the TEAD-luciferase reporter activity (compound concentration: 200 nM) was inactive: 1.75, the TEAD-luciferase reporter activity (compound concentration: 2 uM) was inactive: 1.34 and the TEAD-luciferase reporter activity (compound concentration: 10 uM) was inactive: -0.528.
On the same counts, the results for `CS(=O)(=O)Nc1cc2occ(NC=O)c(=O)c2cc1Oc1ccccc1` [Iguratimod] are inactive: -0.715, inactive: 2.67 and inactive: -2.37.
In the case of `C=CCSCC1Nc2cc(Cl)c(S(N)(=O)=O)cc2S(=O)(=O)N1` (stereo not drawn), the TEAD-luciferase reporter activity was inactive: 2.96 (compound concentration: 200 nM), inactive: -1.06 (compound concentration: 2 uM) and inactive: -0.0554 (compound concentration: 10 uM).
For the molecule `N/C(=N\OCC(O)CN1CCCCC1)c1cccnc1` (stereo not drawn), the TEAD-luciferase reporter activity reads like this: (compound concentration: 200 nM) inactive: -0.454; (compound concentration: 2 uM) inactive: -1.24; (compound concentration: 10 uM) inactive: 4.38.
Take `Cc1ccc(-c2cccc(CN3CCCC(NC(=O)c4cccc(Cl)c4)C3)c2)cc1Cl` (stereo not drawn): the TEAD-luciferase reporter activity was active: 6.98 (compound concentration: 200 nM) and inactive: 0.562 (compound concentration: 10 uM).
On to `CC/C(=C(\c1ccccc1)c1ccc(OCCN(C)C)cc1)c1ccccc1` [Tamoxifen citrate], for which the TEAD-luciferase reporter activity (compound concentration: 2 uM) was inactive: -0.137.
Regarding `CC/C(=C(\c1ccccc1)c1ccc(OCCN(C)C)cc1)c1ccccc1` [Tamoxifen . citrate], the TEAD-luciferase reporter activity is inactive: -1.24 (compound concentration: 200 nM) and inactive: 2.89 (compound concentration: 10 uM).
Turning to `CCCn1c(=O)c2[nH]c(-c3cnn(Cc4ccccc4)c3)nc2n(CCC)c1=O`, the TEAD-luciferase reporter activity is, setting by setting: (compound concentration: 200 nM) inactive: -1.27; (compound concentration: 2 uM) inactive: 0.164; (compound concentration: 10 uM) inactive: 2.38.
As to `CO/N=C(\C(=O)N[C@@H]1C(=O)N2C(C(=O)O)=CCSC12)c1csc(N)n1` (stereo partly drawn) [ceftizoxime], the TEAD-luciferase reporter activity runs as follows: (compound concentration: 200 nM) inactive: -0.726; (compound concentration: 2 uM) inactive: -0.27; (compound concentration: 10 uM) inactive: 1.58.
On the same counts, the results for `O=c1cc(NC2CCN(CCCc3ccccc3)CC2)c2ccc(Cl)cc2o1` are inactive: -0.602, inactive: -2.12 and inactive: 0.976.
For `CC(=O)NC[C@H]1CN(c2ccc(N3CCN(Cc4ccc([N+](=O)[O-])o4)CC3)c(F)c2)C(=O)O1` [Ranbezolid hydrochloride] the same measures were inactive: -0.349, inactive: -1.2 and inactive: 2.51.
On the same counts, the results for `Cn1c(NC[C@@H](N)Cc2ccccc2)nc(-c2ccncc2)c(-c2ccc3ccccc3c2)c1=O` are inactive: -2.94, inactive: -2.08 and inactive: -1.02.
On to `CCCCN1C(=O)C2C(=O)N(CCCCN3CCN(c4ccccc4OC)CC3)C(=O)C(C1=O)C2(C)C` [Umespirone], for which the TEAD-luciferase reporter activity (compound concentration: 200 nM) was inactive: -0.115, the TEAD-luciferase reporter activity (compound concentration: 2 uM) is inactive: -0.591 and the TEAD-luciferase reporter activity (compound concentration: 10 uM) was active: 7.42.
As for `CC1CCCC(C)(C)C1CCC(C)[N+](C)(C)CCCCCC[N+](C)(C)C(C)CCC1C(C)CCCC1(C)C` (stereo not drawn), the TEAD-luciferase reporter activity (compound concentration: 200 nM) is inactive: -2.43, the TEAD-luciferase reporter activity (compound concentration: 2 uM) is inactive: -0.00628 and the TEAD-luciferase reporter activity (compound concentration: 10 uM) is inactive: 1.51.
For `COc1ccc2c(c1)c(CC(=O)Oc1ccc(C#N)cc1)c(C)n2C(=O)c1ccc(Cl)cc1` the same measures were inactive: -2.45, inactive: 0.591 and inactive: 0.238.
As for `COc1ccc(CN2CCN(C(c3ccc(F)cc3)c3ccc(F)cc3)CC2)c(OC)c1OC` [lomerizine HCl], under “compound concentration: 2 uM”, the TEAD-luciferase reporter activity is inactive: 3.24.
Regarding `COc1ccc(CN2CCN(C(c3ccc(F)cc3)c3ccc(F)cc3)CC2)c(OC)c1OC`, the TEAD-luciferase reporter activity is inactive: -1.91 (compound concentration: 200 nM) and inactive: -0.154 (compound concentration: 10 uM).
Regarding `CCCCCCCCc1ccc(-c2noc(C[C@@H]3CCCN3C(=N)N)n2)cc1`, the TEAD-luciferase reporter activity is inactive: -0.815 (compound concentration: 200 nM), inactive: 0.519 (compound concentration: 2 uM) and inactive: -1.21 (compound concentration: 10 uM).
